Test results reported in patent US20110269817A1, “COMPOSITIONS AND METHODS RELATED TO SIRT1 FUNCTION” (The Regents of the University of California, priority 2008, published 2011).
Results are given in words; binding and its absence hold for the method and conditions named. Binding seen in cells or lysates may run through a third protein. Some results given as binding are weak or reduced against the parent protein; the word gives no strength.

Assays:
[1] = molecular target: T1, Endogenous CLOCK of mouse liver and MEFs (mouse) (UniProt O08785); assay: coimmunoprecipitation (FIG. 5)
T1 sequence (looked up): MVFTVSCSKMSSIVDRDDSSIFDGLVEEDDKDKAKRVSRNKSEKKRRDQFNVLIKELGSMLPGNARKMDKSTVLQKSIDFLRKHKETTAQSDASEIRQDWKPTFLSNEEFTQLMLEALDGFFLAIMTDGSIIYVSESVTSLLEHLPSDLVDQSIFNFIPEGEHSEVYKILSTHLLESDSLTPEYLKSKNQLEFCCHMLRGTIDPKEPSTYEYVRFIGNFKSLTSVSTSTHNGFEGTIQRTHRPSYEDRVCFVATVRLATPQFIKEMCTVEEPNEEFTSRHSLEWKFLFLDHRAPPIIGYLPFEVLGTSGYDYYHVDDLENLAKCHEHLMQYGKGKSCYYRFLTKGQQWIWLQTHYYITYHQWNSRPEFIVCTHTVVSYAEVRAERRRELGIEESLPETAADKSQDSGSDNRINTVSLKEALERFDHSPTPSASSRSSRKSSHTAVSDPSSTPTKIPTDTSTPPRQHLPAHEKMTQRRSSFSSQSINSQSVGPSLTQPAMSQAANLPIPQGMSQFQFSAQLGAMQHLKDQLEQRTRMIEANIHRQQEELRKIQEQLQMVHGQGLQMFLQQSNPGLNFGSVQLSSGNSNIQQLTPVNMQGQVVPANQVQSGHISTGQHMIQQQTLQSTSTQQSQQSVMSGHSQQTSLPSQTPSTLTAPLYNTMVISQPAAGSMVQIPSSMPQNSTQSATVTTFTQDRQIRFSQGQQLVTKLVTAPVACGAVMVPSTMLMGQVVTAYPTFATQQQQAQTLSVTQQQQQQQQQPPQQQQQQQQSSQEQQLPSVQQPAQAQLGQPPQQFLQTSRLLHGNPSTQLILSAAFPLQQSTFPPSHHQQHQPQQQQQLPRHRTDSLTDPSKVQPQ

[2] = molecular target: T1, Endogenous CLOCK of mouse liver and MEFs (mouse); assay: coimmunoprecipitation of SIRT1 from MEFs with anti-CLOCK antibody at various times after serum shock (FIG. 5C)
[3] = molecular target: T1, Endogenous CLOCK of mouse liver and MEFs (mouse); assay: coimmunoprecipitation of endogenous proteins from mouse liver extracts (FIG. 5B)

Measured: binding

B1: Endogenous (native) SIRT1 of mouse liver and MEFs (enzyme, UniProt Q923E4 2-737, looked up)
chain: ADEVALALQAAGSPSAAAAMEAASQPADEPLRKRPRRDGPGLGRSPGEPSAAVAPAAAGCEAASAAAPAALWREAAGAAASAEREAPATAVAGDGDNGSGLRREPRAADDFDDDEGEEEDEAAAAAAAAAIGYRDNLLLTDGLLTNGFHSCESDDDDRTSHASSSDWTPRPRIGPYTFVQQHLMIGTDPRTILKDLLPETIPPPELDDMTLWQIVINILSEPPKRKKRKDINTIEDAVKLLQECKKIIVLTGAGVSVSCGIPDFRSRDGIYARLAVDFPDLPDPQAMFDIEYFRKDPRPFFKFAKEIYPGQFQPSLCHKFIALSDKEGKLLRNYTQNIDTLEQVAGIQRILQCHGSFATASCLICKYKVDCEAVRGDIFNQVVPRCPRCPADEPLAIMKPEIVFFGENLPEQFHRAMKYDKDEVDLLIVIGSSLKVRPVALIPSSIPHEVPQILINREPLPHLHFDVELLGDCDVIINELCHRLGGEYAKLCCNPVKLSEITEKPPRPQKELVHLSELPPTPLHISEDSSSPERTVPQDSSVIATLVDQATNNNVNDLEVSESSCVEEKPQEVQTSRNVENINVENPDFKAVGSSTADKNERTSVAETVRKCWPNRLAKEQISKRLEGNQYLFVPPNRYIFHGAEVYSDSEDDVLSSSSCGSNSDSGTCQSPSLEEPLEDESEIEEFYNGLEDDTERPECAGGSGFGADGGDQEVVNEAIATRQELTDVNYPSDKS
binds: [1] | [2] | [3]
